Some of the results follow. Further columns of the screen follow, without active or inactive calls. Compounds called inactive in the main read-out are mostly missing here. The note in brackets gives the kind of curve behind each potency; many fits are weak.
Experiment: qHTS Assay to Find Inhibitors of Chronic Active B-Cell Receptor Signaling
Settings: ABC-DLBCL IkBa-CBG/CBR reporter, luminescence ratio (green luciferase fused to IkBa over red control in TMD8 lymphoma cells), 4 h
In short: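 Compounds up to 46 uM were incubated four hours with TMD8 cells whose green CBG68 luciferase is fused to IkappaBalpha; red CBR luminescence normalised the signal, and concentration-effect curves were fitted to fusion, red and ratio data.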

[1] = measured here: CBR red luminescence, cell number
[2] = measured here: IkBa-CBG green luminescence

## CC1=C/C(=C(/c2cc(C)c(O)c(Br)c2)c2ccccc2S(=O)(=O)O)C=C(Br)C1=O
[1]
  AC50: 7.94 µM [falling, partial curve, poor fit]

## NC(N)=NC(=O)c1nc(Cl)c(N)nc1N
[1]
  AC50: 12.6 µM [falling, single point]

## C[C@H]1C[C@@H](C)C(=O)[C@@H]([C@H](O)CC2CC(=O)NC(=O)C2)C1
[1]
  AC50: 0.251 µM [falling, full curve]

## O=[N+]([O-])c1ccccc1-c1cc(-c2ccccc2)cc(-c2ccccc2)[n+]1Cc1ccccc1Cl
[1]
  AC50: 20.6 µM [falling, single point]

## O=[N+]([O-])c1ccc(N2CCNCC2)c2ncccc12
[1]
  AC50: 14.6 µM [rising, single point]

## COC(=O)C1=C(c2ccc(F)cc2OCc2ccccc2)C[C@@H]2CC[C@H]1N2C(=O)NCc1ccc(Cl)cc1
[1]
  AC50: 14.6 µM [falling, partial curve]

## Oc1ccc(-[n+]2c(-c3ccccc3)cc(-c3ccccc3)cc2-c2ccccc2)cc1
[1]
  AC50: 23.1 µM [falling, single point]

## Nc1ccc(S(=O)(=O)N2CCCCC2c2cccnc2)cc1 (stereo not given)
[1]
  AC50: 2.91 µM [falling, partial curve, poor fit]

## O=C(Nc1ccc2c(c1)OCCO2)c1cccn(Cc2cccc(F)c2)c1=O
[1]
  AC50: 10 µM [falling, partial curve, poor fit]

## Cc1nc(-c2noc(-c3ccc(Cl)cc3)n2)c(C(F)(F)F)o1
[1]
  AC50: 10 µM [rising, partial curve, poor fit]

## O=C(c1cccn2c(=O)c3cc(Br)ccc3nc12)N1CCC2(CC1)OCCO2
[1]
  AC50: 23.1 µM [falling, single point]

## COC(=O)C1=C(c2ccc(-c3ccccc3)c(F)c2)C[C@@H]2CC[C@H]1N2C(=O)NCc1ccc(F)cc1
[1]
  AC50: 18.4 µM [falling, partial curve, poor fit]

## CCOc1cc(/C=C2\CN(CC)C/C(=C\c3ccc(O)c(OCC)c3)C2=O)ccc1O
[1]
  AC50: 10 µM [falling, partial curve, poor fit]

## C/C(=N\N1CCCCCC1)c1c(O)n(C)c(=O)n(C)c1=O
[1]
  AC50: 6.31 µM [rising, single point]

## Cn1c(O)c(C(=Nc2ccc(F)cc2)c2ccccc2)c(=O)n(C)c1=O
[1]
  AC50: 2.24 µM [falling, partial curve, poor fit]

## O=P(Nc1cccc(Cl)c1)(Oc1ccccc1)Oc1ccccc1
[1]
  AC50: 22.4 µM [falling, single point]

## Nc1ccccc1C(=O)OCC(=O)N1CCc2ccccc21
[1]
  AC50: 29.1 µM [falling, single point]

## O=C1/C(=C/c2ccncc2)N2CCC1CC2
[1]
  AC50: 25.1 µM [falling, single point]

## CCOC(=O)N1CCN(C(=O)c2ccc3c(c2)N(C)C(=O)/C(=C\c2ccc(OCC)c(OC)c2)S3)CC1
[1]
  AC50: 35.5 µM [falling, single point]

## O=C(O)C1C2CCC(O2)C1C(=O)NC1CCCCC1 (stereo not given)
[1]
  AC50: 20.6 µM [rising, partial curve, poor fit]

## COc1ccc(-c2csc(N)n2)cc1F
[1]
  AC50: 11.2 µM [rising, partial curve, poor fit]

## O=C(/C=C\c1ccco1)NC(=S)Nc1ccccc1O
[1]
  AC50: 10 µM [falling, partial curve, poor fit]

## Cc1ccc(C)c(/C=N/Nc2ccccn2)c1
[1]
  AC50: 6.31 µM [rising, single point]

## c1ccc2sc(C3CCCNC3)nc2c1 (stereo not given)
[2]
  AC50: 3.66 µM [rising, partial curve, poor fit]

## COc1cccc(-c2nc3ccc(N4CCN(C)CC4)cc3[nH]2)c1
[1]
  AC50: 5.01 µM [falling, partial curve, poor fit]
[2]
  AC50: 2.24 µM [rising, partial curve, poor fit]

## CCc1ccc(-c2cc(C)no2)cc1S(=O)(=O)N1CCOc2ccc(C)cc21
[1]
  AC50: 12.6 µM [falling, partial curve]

## NC(=O)Nc1ccc(C(=O)OCC(=O)Nc2ccc(Cl)cc2C(=O)c2ccccc2)cc1
[1]
  AC50: 29.1 µM [falling, single point]

## O=C(Cn1c(=O)oc2ccccc21)Nc1ccc(Cl)cc1
[1]
  AC50: 3.16 µM [falling, partial curve, poor fit]

## COc1ccc(C2C(C#N)=C(N)Oc3c2c(=O)oc2ccccc32)cc1Cn1cc([N+](=O)[O-])cn1 (stereo not given)
[1]
  AC50: 3.55 µM [falling, partial curve, poor fit]

## c1ccc(-c2cc(-c3ccccc3)[n+](-c3ccccc3)c(-c3ccccc3)c2)cc1
[1]
  AC50: 35.5 µM [falling, partial curve, poor fit]

## O=C(N/N=C/c1c(O)n(CCC2=CCCCC2)c(=O)[nH]c1=O)c1ccccc1
[1]
  AC50: 4.11 µM [falling, partial curve]

## Cc1c(C(=O)N2CCC3(CC2)OCCO3)oc2ccc(S(=O)(=O)N3CCCCC3)cc12
[1]
  AC50: 7.31 µM [rising, partial curve, poor fit]

## O=c1[nH]c(=O)n(Cc2ccco2)c(O)c1C=NCc1ccc2c(c1)OCO2
[1]
  AC50: 0.794 µM [rising, full curve]

## NS(=O)(=O)c1ccc(N2CCNCC2)cc1
[1]
  AC50: 35.5 µM [rising, single point]

## O=C1NC(c2cccnc2)Nc2sc3c(c21)CCCC3 (stereo not given)
[1]
  AC50: 6.51 µM [rising, single point]

## CCCC(=O)NC(Oc1ccc(OC)cc1)C(Cl)(Cl)Cl (stereo not given)
[1]
  AC50: 31.6 µM [rising, single point]

## CCCCCCn1c(O)c(C=Nc2c(C)n(C)n(-c3ccccc3)c2=O)c(=O)[nH]c1=O
[1]
  AC50: 20.6 µM [rising, partial curve, poor fit]

## C=CCn1c(O)c(C(CC)=NCc2ccc3c(c2)OCO3)c(=O)[nH]c1=O
[1]
  AC50: 15.8 µM [falling, partial curve, poor fit]

## COc1ccc(-c2cc(C(=O)N(C)Cc3ccccc3)no2)cc1OC
[1]
  AC50: 12.6 µM [falling, partial curve]

Reference: PubChem BioAssay AID493014 (National Center for Advancing Translational Sciences (NCATS), 2011)
